For the experiment, the target named is Mad1*DN (Mad1 b-HLH-LZ domain with C75S, C111S, D112N and C-terminal GSGC extension) (human) (UniProt Q05195). Kind of experiment: CD thermal denaturation at 222 nm, 16 uM, homodimer.

Sequences of proteins named here, by UniProt entry; tags and fusion partners are left off. A change or cut given only in a name is not applied to a line headed by its entry.
UniProt Q05195: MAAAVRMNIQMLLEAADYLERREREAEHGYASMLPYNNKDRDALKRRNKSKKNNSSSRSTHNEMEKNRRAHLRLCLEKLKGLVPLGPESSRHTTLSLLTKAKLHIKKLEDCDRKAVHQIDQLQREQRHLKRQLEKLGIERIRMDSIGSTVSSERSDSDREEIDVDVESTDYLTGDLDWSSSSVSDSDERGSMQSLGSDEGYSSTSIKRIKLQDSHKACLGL

These are yes or no findings as the source states them, for the method shown. Some binding calls cover weakened binding; strength is not graded here.

B1: Mad1*DN (Mad1 b-HLH-LZ domain with C75S, C111S, D112N and C-terminal GSGC extension) (protein)
chain: SRSTHNEMEKNRRAHLRLSLEKLKGLVPLGPESSRHTTLSLLTKAKLHIKKLEDSNRKAVHQIDQLQREQRHLKRQLEKLGSGC
As to B1, the binding entry is listed as “binds”.

(Values after patent publication US20200299341A1 (SOCIETE DE COMMERCIALISATION DES PRODUITS DE LA RECHERCHE …, published 2020).)
